Measured values reported in PubChem BioAssay AID1671190 (National Center for Advancing Translational Sciences (NCATS), 2021).
Screen size: about 580,000 compounds; about 6,100 (1.1%) were called active. The inconclusive results got no clear call from the source; some entries with a clear call stand among them for comparison. The call rests on the fitted dose curve; in most records, active means well fitted inhibition curve with a large enough effect; inconclusive means small, poorly fitted or top-dose-only effect, or another doubt; inactive means no such curve, though single readings can be large or run the other way. Where the call is inconclusive, the potency comes from a doubtful curve fit.

The chains behind the UniProt entries cited, without tags or fusion partners. Where a name states a change or a piece, a line headed by the entry shows the natural chain unless it says otherwise.
UniProt P18054: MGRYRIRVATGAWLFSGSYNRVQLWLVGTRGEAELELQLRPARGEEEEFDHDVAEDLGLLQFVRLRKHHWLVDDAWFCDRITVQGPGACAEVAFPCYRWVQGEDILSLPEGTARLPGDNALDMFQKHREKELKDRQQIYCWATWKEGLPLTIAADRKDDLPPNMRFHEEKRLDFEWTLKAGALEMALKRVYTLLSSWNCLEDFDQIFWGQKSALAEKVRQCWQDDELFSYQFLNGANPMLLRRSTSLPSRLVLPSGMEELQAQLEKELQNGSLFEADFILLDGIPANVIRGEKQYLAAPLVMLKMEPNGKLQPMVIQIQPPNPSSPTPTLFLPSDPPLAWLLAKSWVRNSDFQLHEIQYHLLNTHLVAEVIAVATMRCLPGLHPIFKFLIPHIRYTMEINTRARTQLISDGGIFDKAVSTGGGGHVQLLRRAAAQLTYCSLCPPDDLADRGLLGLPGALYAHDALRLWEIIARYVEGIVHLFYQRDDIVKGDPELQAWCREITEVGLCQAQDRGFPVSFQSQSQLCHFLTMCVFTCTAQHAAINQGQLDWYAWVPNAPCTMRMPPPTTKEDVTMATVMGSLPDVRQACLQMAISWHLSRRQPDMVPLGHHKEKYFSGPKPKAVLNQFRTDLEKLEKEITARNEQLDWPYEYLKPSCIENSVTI

biological target: Polyunsaturated fatty acid lipoxygenase ALOX12 (Homo sapiens) (UniProt P18054); test: Primary qHTS assay for inhibitors of human arachidonate 12S-lipoxygenase (ALOX12): Round 2; settings: purified 12hLO, xylenol orange hydroperoxide absorbance; activity change, negative = inhibition: at 108 µM (top of the series) unless noted
Summary of the method: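 Hydroperoxide product was detected by ferrous iron/xylenol orange as the 573 to 405 nm absorbance ratio. Arachidonic acid at 40 uM (final) was turned over for 30 min at room temperature by 150 nM human 12hLO, pH 7.0 Hepes buffer, after 15 min compound preincubation.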
On the % scale 0 is the no-effect control and ±100 the full control effect; potency means the concentration at half of the fitted maximal effect.

| SMILES | Potency | activity change, negative = inhibition |
| --- | --- | --- |
| COc1ccc(Br)cc1CN1CCCCCC1 | inconclusive: 0.398 µM [inhibitor, full curve, poor fit] |  |
| Cc1nc(CCNC(=O)c2scnc2C)cs1 | inconclusive: 112 µM [inhibitor, single point] |  |
| COC(=O)[C@@H]1Cc2nc[nH]c2CN1Cc1ccc(Cl)cc1 |  | inactive: 47.6% [at 176 µM] |
| COc1ccccc1C(=O)NC1(C(F)(F)F)C(=O)Nc2c1c(=O)[nH]c(=O)n2-c1ccc(F)cc1 (configuration not stated) | inconclusive: 112 µM [inhibitor, partial curve, poor fit] |  |
| O=C1C(=O)N(Cc2cccnc2)C(c2ccccn2)/C1=C(\O)c1ccccc1 (configuration not stated) | inconclusive: 2.51 µM [inhibitor, full curve] |  |
| CN(Cc1ccccc1)C(=O)C[C@@H]1O[C@H](CNC(=O)c2ccccc2)[C@@H](O)[C@H]1O | inconclusive: 35.5 µM [inhibitor, full curve, poor fit] |  |
| COc1ccc(OC)c(CNCc2c(C(=O)O)c(C)n(Cc3c(C)cc(C)cc3C)c2C)c1 | inconclusive: 17.8 µM [inhibitor, full curve, poor fit] |  |
| O=C(O)c1ccc(CN2CCOC[C@H]2c2ncc(-c3cccnc3)[nH]2)cc1 |  | inactive: 9.52% [at 176 µM] |
| COc1cc(C)cc2oc(=O)c(CC(=O)O)c(C)c12 | inconclusive: 2.82 µM [inhibitor, full curve, poor fit] |  |
| CNc1ccc(Br)cc(C(=O)/C=C/c2cccc(OC)c2)c1=O | inconclusive: 5.62 µM [inhibitor, full curve] |  |
| CC1(C)[C@H]2CC[C@@H](CNC(=O)c3cccc4[nH]ccc34)[C@@H]1C2 |  | inactive: 1.15% [at 176 µM] |
| CCc1ccc(-n2nc(C)c3c(C(=O)N4CCN(c5ccccc5)CC4)cc(C)nc32)cc1 | inconclusive: 63.1 µM [inhibitor, partial curve, poor fit] |  |
| Cc1cc(C)nc(NC(N)=NCc2cccnc2)n1 | inactive |  |
| CC1(COCC2CC2)COc2ccc(C(=O)Nc3ccccc3)cc2N1 (configuration not stated) |  | inactive: 7.91% [at 176 µM] |
| Cc1oc2ccc(OS(C)(=O)=O)cc2c1C(=O)OC(C)C |  | inactive: -21.2% |
| CCN(CCO)CC1CCCC2CCCCC21 (configuration not stated) | inconclusive: 44.7 µM [inhibitor, partial curve, poor fit] |  |
| CCSc1nc2c(c(=O)n(C)c(=O)n2C)n1CCc1ccc(OC)cc1 | inconclusive: 44.7 µM [inhibitor, partial curve, poor fit] |  |
| O=C(O)CCCC(=O)N1CCNC(=O)C1 |  | inactive: -18.5% |
| CC(/C=N/n1c(C2CCCCC2)n[nH]c1=S)=C\c1ccccc1 | inconclusive: 20 µM [inhibitor, full curve, poor fit] |  |
| CNC(=O)[C@@H]1C[C@H](Oc2cccnc2)CN1S(=O)(=O)c1cccs1 |  | inactive: -8.63% |
| CC(=O)C1=C(O)C(=O)N(Cc2ccccc2)C1c1ccc([N+](=O)[O-])cc1 (configuration not stated) | inconclusive: 35.5 µM [inhibitor, partial curve, poor fit] |  |
| O=C(Nc1ccc(Cl)cc1C(F)(F)F)c1cccc(F)c1 |  | inactive: -20.1% |
| O=C(O)CN1CCOCC1 | inconclusive: 22.4 µM [inhibitor, partial curve] |  |
| CCCCN(C(=O)C(C)Oc1ccc(Br)cc1)c1c(N)n(CC(C)C)c(=O)[nH]c1=O (configuration not stated) | inconclusive: 79.4 µM [inhibitor, partial curve, poor fit] |  |

| SMILES | Potency | activity change, negative = inhibition |
| --- | --- | --- |
| Cc1c(CCC(=O)NC2CCCCCC2)c(=O)oc2cc(O)ccc12 |  | inactive: 16.7% |
| COc1cccc(CNC(=O)c2ccc(CS(=O)c3ccccc3Cl)o2)c1 (configuration not stated) |  | inactive: 12.6% |
| Nc1nc(SCc2ccc(Cl)cc2)ns1 |  | inactive: 0% |
| C=CCOc1nc2c(c(=O)n(Cc3ccc(Br)cc3)c(=O)n2C)n1C | inconclusive: 112 µM [inhibitor, single point] |  |
| COc1ccc(-c2cc(NC(C)=O)c3ncc(-c4cccc(C(F)(F)F)c4)n3c2)c(OC)c1 | inconclusive: 44.7 µM [inhibitor, partial curve, poor fit] |  |
| CN(CC(=O)Nc1ccccc1C(F)(F)F)C(=O)CSCc1ccccc1 | inconclusive: 6.31 µM [inhibitor, partial curve, poor fit] |  |
| O=C1C[C@@H](c2ccc(O)cc2)Oc2cc(O)cc(O)c21 | inconclusive: 1.53 µM [inhibitor, full curve, poor fit] |  |
| Cc1ccc(NC(=O)C2C3CC/C=C\CC/C=C/CCC32)cc1C (configuration not stated) |  | inactive: -31% |
| O=C(CCN1CCN(C(c2ccccc2)c2ccccc2)CC1)NNC(=O)Cc1ccc(Cl)cc1 | inconclusive: 141 µM [inhibitor, single point] |  |
| Cc1cc(Cn2nc(-c3ccccc3)cc2C(=O)NCC2CC2)on1 | inconclusive: 100 µM [inhibitor, partial curve, poor fit] |  |
| OCCNCc1cc(Br)ccc1OCc1ccc(Cl)cc1 |  | inactive: -6.46% |
| Cc1nc(CN2C[C@H](C(=O)Nc3cccc(Cl)c3)C[C@@H]2c2ccc(F)cc2)cs1 | inconclusive: 56.2 µM [inhibitor, single point] |  |
| Cn1nc(C(=O)OC2CCCCCC2)c2ccccc2c1=O |  | inactive: 13.7% |
| COC(=O)c1ccc(Cl)c(NC(=O)CN(c2ccc3c(c2)OCO3)S(C)(=O)=O)c1 | inconclusive: 50.1 µM [inhibitor, partial curve, poor fit] |  |
| NC(CO)c1ccc(OCc2ccccc2)cc1 (configuration not stated) | inconclusive: 100 µM [inhibitor, single point] |  |
| COc1ccc(NC(=O)c2ccco2)cc1NC(=O)C(C)(C)Oc1ccc(Cl)cc1 |  | inactive: -13% |
| O=[N+]([O-])c1cccc(N=Cc2ccc(C#Cc3ccccc3)cc2)c1 |  | inactive: 7.18% |
| Cc1cnn(C2(C(=O)O)CCN(C(=O)c3cc(C)nc(C)n3)CC2)c1 |  | inactive: 14.1% |
| COc1ccc(C(C)NCCC(c2ccc(OC(C)C)cc2)c2ccccc2OC)cc1 (configuration not stated) | inconclusive: 141 µM [inhibitor, single point] |  |
| O=S1CCNc2ccccc21 (configuration not stated) |  | inactive: 50.1% |
| Cn1ccnc1CN1CCC2(CC1)OC(=O)N(Cc1ccccc1F)C2(C)c1ccccc1 (configuration not stated) |  | inactive: 39.5% |
| O=C(O)c1cccc(COc2ccc(Cl)cc2)c1 |  | inactive: -26.2% |
| CCOC(=O)c1c(C)sc(-c2c(-c3ccccc3)[nH]c3[nH]c(=O)[nH]c(=O)c23)c1O | inconclusive: 50.1 µM [inhibitor, partial curve, poor fit] |  |

In another format: 2 of the compounds above.
SMILES	Potency	activity change, negative = inhibition
COc1ccc(NC(=O)c2ccco2)cc1NC(=O)C(C)(C)Oc1ccc(Cl)cc1		inactive: -13%
O=[N+]([O-])c1cccc(N=Cc2ccc(C#Cc3ccccc3)cc2)c1		inactive: 7.18%
